The target in this test is T1, SKAP-55, transfected (UniProt Q86WV1).
T1 sequence: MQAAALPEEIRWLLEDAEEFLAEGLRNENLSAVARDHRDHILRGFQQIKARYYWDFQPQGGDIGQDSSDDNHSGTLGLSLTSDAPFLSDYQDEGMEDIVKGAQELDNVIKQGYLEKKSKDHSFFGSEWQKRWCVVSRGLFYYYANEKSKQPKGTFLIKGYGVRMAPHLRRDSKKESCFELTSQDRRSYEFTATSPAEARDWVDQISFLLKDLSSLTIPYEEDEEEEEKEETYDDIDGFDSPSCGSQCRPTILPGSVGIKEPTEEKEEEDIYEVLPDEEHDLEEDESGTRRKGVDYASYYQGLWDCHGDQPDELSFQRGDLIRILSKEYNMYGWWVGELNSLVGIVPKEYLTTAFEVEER
Put plainly: co-IP; Jurkat cells transfected with myc-RasGRP1 plus SKAP-55 or SKAP-55ΔSH3; anti-SKAP-55 precipitates blotted for RasGRP1.

These are yes or no findings as the source states them, for the method shown. Binding seen in cells or lysates may run through a third protein. Some entries that bind do so weakly or less than the wild type. Sequences can lack the tags named with a protein.

We go through 1 molecule from publication PMC2249700.

B1: myc-RasGRP1 (protein, UniProt O95267 1-797)
chain: MGTLGKAREAPRKPSHGCRAASKARLEAKPANSPFPSHPSLAHITQFRMMVSLGHLAKGASLDDLIDSCIQSFDADGNLCRSNQLLQVMLTMHRIVISSAELLQKVITLYKDALAKNSPGLCLKICYFVRYWITEFWVMFKMDASLTDTMEEFQELVKAKGEELHCRLIDTTQINARDWSRKLTQRIKSNTSKKRKVSLLFDHLEPEELSEHLTYLEFKSFRRISFSDYQNYLVNSCVKENPTMERSIALCNGISQWVQLMVLSRPTPQLRAEVFIKFIQVAQKLHQLQNFNTLMAVIGGLCHSSISRLKETSSHVPHEINKVLGEMTELLSSSRNYDNYRRAYGECTDFKIPILGVHLKDLISLYEAMPDYLEDGKVNVHKLLALYNHISELVQLQEVAPPLEANKDLVHLLTLSLDLYYTEDEIYELSYAREPRNHRAPPLTPSKPPVVVDWASGVSPKPDPKTISKHVQRMVDSVFKNYDHDQDGYISQEEFEKIAASFPFSFCVMDKDREGLISRDEITAYFMRASSIYSKLGLGFPHNFQETTYLKPTFCDNCAGFLWGVIKQGYRCKDCGMNCHKQCKDLVVFECKKRAKNPVAPTENNTSVGPVSNLCSLGAKDLLHAPEEGPFTFPNGEAVEHGEESKDRTIMLMGVSSQKISLRLKRAVAHKATQTESQPWIGSEGPSGPFVLSSPRKTAQDTLYVLPSPTSPCPSPVLVRKRAFVKWENKDSLIKSKEELRHLRLPTYQELEQEINTLKADNDALKIQLKYAQKKIESLQLEKSNHVLAQMEQGDCS
In the case of B1, the binding entry is “binds”.
